# From PubChem BioAssay AID493014 (National Center for Advancing Translational Sciences (NCATS), 2011)
# Some of the results follow. Further columns of the screen follow, without active or inactive calls. Compounds called inactive in the main read-out are mostly missing here. Words in brackets tell the shape of the fitted curve; partial curves, single points and poor fits give uncertain potencies.
# Experiment: qHTS Assay to Find Inhibitors of Chronic Active B-Cell Receptor Signaling
# Conditions: ABC-DLBCL IkBa-CBG/CBR reporter, luminescence ratio (green luciferase fused to IkBa over red control in TMD8 lymphoma cells), 4 h
# Outline: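 Cell line TMD8 (human ABC DLBCL), stably expressing tet-inducible CBG68-IkBa fusion and CBR; IMDM/0.5% FBS; cpd up to 46 uM; dox induction, 4 h, 37C/5% CO2; dual luminescence; green/red ratio; MG132 control.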
# [1] = measured here: CBR red luminescence, cell number
# [2] = measured here: IkBa-CBG green luminescence
Compound,AC50 [1],AC50 [2]
COC(CNC(=O)c1ccc2c3c(onc13)-c1ccccc1C2=O)OC,"35.5 µM [falling, single point]","7.08 µM [rising, partial curve, poor fit]"
O=C(/C=C/c1ccc(F)cc1)Nc1ccc2[nH]c(=O)[nH]c2c1,"35.5 µM [falling, single point]",–
Cc1cc(=O)oc2ccc(OCC(=O)NCc3ccco3)cc12,"2.06 µM [rising, partial curve, poor fit]",–
COc1cccc(Nc2sc(C(=O)c3ccc(F)cc3)c(N)c2C(=O)NCc2ccc(Cl)cc2)c1,"35.5 µM [falling, single point]",–
CCOC(=O)c1ccc(NC(=O)CC2SC3=NCCN3C2=O)cc1 (configuration not stated),"0.708 µM [rising, full curve, poor fit]",–
Cc1cccc(N2CSC3=C(C#N)C(c4ccc(C)o4)CC(=O)N3C2)c1 (configuration not stated),"12.6 µM [rising, single point]",–
Cc1cccc2nc(CSc3ccc(Cl)cc3)cn12,"8.91 µM [falling, partial curve]",–
S=C(NCCc1ccccc1)NC1CC1,"8.2 µM [rising, partial curve, poor fit]",–
COc1ccc(NC(=O)NNC(=O)c2ccc(-c3ccccc3)cc2)c(OC)c1,"12.6 µM [rising, partial curve]",–
Cc1cccc(C)c1NC(=O)c1cn(-c2ccccc2)nc1-c1ccccc1,"3.66 µM [rising, full curve]",–
CCOCCCNc1ncnc2c1cnn2-c1ccc(C)c(C)c1,"3.98 µM [falling, full curve, poor fit]",–
CN(C)c1ccc(/C=N/N(CCC#N)C2=NS(=O)(=O)c3ccccc32)cc1,"35.5 µM [rising, single point]",–
CCOC(=O)Cc1csc(SCC(=O)Nc2sc3c(c2C(N)=O)CCC3)n1,"14.1 µM [falling, single point]",–
Cc1ccc(S(=O)(=O)N2CCN(C(=O)CSc3nnnn3C)C2)cc1,"0.00461 µM [rising, full curve, poor fit]",–
COC(=O)c1cc2ccsc2n1CC(=O)Nc1cc(C)cc(C)c1,"5.8 µM [falling, partial curve, poor fit]",–
COc1ccc(CCN2C(=O)NC(NS(=O)(=O)c3ccc(Cl)cc3)(C(F)(F)F)C2=O)cc1OC (configuration not stated),"2.82 µM [rising, single point]",–
Cc1nnc2ccc(-c3ccc(NC(=O)c4ccc(Cl)nc4)cc3)nn12,"10 µM [rising, partial curve, poor fit]",–
COCC(C)n1c(SCC(=O)Nc2nccs2)nc2ccccc2c1=O (configuration not stated),"29.1 µM [rising, single point]",–
CC(C)CC(=O)/C(=C\c1ccc(Cl)cc1Cl)n1cncn1,"20.6 µM [falling, partial curve]","29.1 µM [rising, single point]"
COc1ccc(Cl)cc1S(=O)(=O)n1cnc2ccccc21,"1.64 µM [falling, partial curve, poor fit]",–
CCOc1ccc(N2C(=O)C(Cl)=C(Nc3ccccc3O)C2=O)cc1,"0.184 µM [falling, full curve, poor fit]",–

# One compound at a time, as listed above:
# `COC(CNC(=O)c1ccc2c3c(onc13)-c1ccccc1C2=O)OC` as listed: AC50 [1]: 35.5 µM [falling, single point]; AC50 [2]: 7.08 µM [rising, partial curve, poor fit]
# `CN(C)c1ccc(/C=N/N(CCC#N)C2=NS(=O)(=O)c3ccccc32)cc1` as listed: AC50 [1]: 35.5 µM [rising, single point]
# `Cc1cccc2nc(CSc3ccc(Cl)cc3)cn12` as listed: AC50 [1]: 8.91 µM [falling, partial curve]
# `COc1ccc(NC(=O)NNC(=O)c2ccc(-c3ccccc3)cc2)c(OC)c1` as listed: AC50 [1]: 12.6 µM [rising, partial curve]

# (further entries)

Compound,AC50 [1],AC50 [2]
CC1=CC(C)(C)N(C)C(=O)N1c1ccc(Cl)cc1,"3.98 µM [rising, full curve, poor fit]",–
c1ccc(-c2ccccc2OCCOCCN2CCc3ccccc3C2)cc1,"22.4 µM [falling, single point]",–
COc1ccc(C(=O)OCC(=O)Nc2cc(C)c(C)cc2[N+](=O)[O-])cc1,"6.51 µM [rising, single point]",–
CCOC(=O)C1(Cc2cccc(Cl)c2)CCCN(C(=O)c2c(CC)noc2C)C1 (configuration not stated),"35.5 µM [falling, single point]",–
CC(/C=N/NC(=O)c1n[nH]c2c1CCC2)=C\c1ccccc1,"2.91 µM [rising, full curve]","4.61 µM [falling, partial curve, poor fit]"
O=C(CN1CCN(S(=O)(=O)c2ccc(Br)cc2)CC1)N/N=C/c1ccc(Cl)c([N+](=O)[O-])c1,"29.1 µM [falling, single point]",–
COC(=O)c1c(NC(=O)CN2CCC3(O)CCCCC3C2c2ccc(F)cc2)sc(C)c1C (configuration not stated),"16.4 µM [falling, single point]",–
COC(=O)CCC(=O)Nc1cccc(Cl)c1,"5.8 µM [rising, full curve, poor fit]","10.3 µM [rising, partial curve, poor fit]"
Cc1ccc(NC(=O)C(CC(=O)O)C2CCCO2)c(C)c1 (configuration not stated),"31.6 µM [rising, single point]",–
CCCCOc1ccc(C(=O)C(CN2CCOCC2)c2ccccc2)cc1 (configuration not stated),"18.4 µM [falling, single point]","20.6 µM [rising, single point]"
COc1cccc2c1OCC/C2=N\NC(=O)COc1ccccc1C,"7.31 µM [rising, partial curve, poor fit]",–
O=C(Nc1ccc(Cl)cc1)Nc1ccc2c(c1)N1CCN=C1S2,"0.0891 µM [rising, full curve]",–
CCCCc1cc(=O)oc2c(C)c(OCC(=O)NCCN3CCOCC3)ccc12,"12.6 µM [rising, partial curve, poor fit]",–
CCc1nc(Nc2ccc(F)cc2)c2oc3ccccc3c2n1,"1 µM [falling, partial curve, poor fit]",–
COc1ccc(/C=N\Nc2ccccn2)c(OC)c1,"0.447 µM [rising, full curve, poor fit]",–
CCOC(=O)c1ccc(NC(=O)CSc2nnc(COc3ccccc3OC)n2C)cc1,"29.1 µM [rising, partial curve, poor fit]",–
CCc1sc(N(C(=O)Cc2ccccc2)c2ccccc2F)nc1-c1ccc(C)cc1,"2.06 µM [falling, full curve, poor fit]",–
Cc1cc(C)n(-c2nncc(-c3ccccc3)n2)n1,"14.1 µM [falling, partial curve]",–
Cc1ccc(CC(=O)O/N=C(\N)c2ccncc2)cc1,"10 µM [rising, partial curve, poor fit]",–
CN(C)S(=O)(=O)c1cccc(NC(=S)NNC(=O)c2cc3ccccc3cc2O)c1,"8.2 µM [falling, partial curve]",–
CCOC(=O)N1CCN(C(=O)CCN2C(=O)COc3ccccc32)CC1,"35.5 µM [rising, single point]",–

Compound,AC50 [1],AC50 [2]
CC(C)(C)c1cc(Cl)ccc1OCCOCCN1CCCC1,"11.2 µM [falling, partial curve]",–
Cc1ccc(-c2nnc(SCC#N)n2N)cc1,"32.6 µM [rising, partial curve, poor fit]",–
O=[N+]([O-])c1c(Nc2ccc(O)cc2)cc(Cl)c2nonc12,"3.55 µM [falling, full curve]",–
COc1ccccc1C(OC(=O)c1ccco1)C(=O)NC(C)(C)C (configuration not stated),"3.55 µM [falling, partial curve]",–
O=C1/C(=C\c2ccco2)SC(=S)N1C1CCCCC1,"11.2 µM [rising, partial curve, poor fit]",–
O=S(Cc1ccc(Br)cc1)Cc1nnc(SCc2ccc(Br)cc2)n1-c1ccccc1 (configuration not stated),"16.4 µM [falling, partial curve, poor fit]",–
CC1=CC(=O)C=C(C)C1=NOC(=O)c1cccc([N+](=O)[O-])c1,"1.84 µM [rising, partial curve, poor fit]",–
CCOCCCNc1ccc(-c2ccccc2)nn1,"29.1 µM [falling, single point]",–
Cn1c(=O)c2c(nc(N3CCc4ccccc4C3)n2Cc2ccc(Br)cc2)n(C)c1=O,"5.17 µM [rising, partial curve, poor fit]",–
Cc1ccc(C(=O)Nc2nc(-c3ccc([N+](=O)[O-])cc3)cs2)o1,"1.46 µM [rising, partial curve, poor fit]",–
Cc1ccc(-c2nnc(OCC3CCCO3)c3ccccc23)cc1 (configuration not stated),"2 µM [rising, partial curve, poor fit]",–
N#Cc1ccccc1Cn1cc(/C=C/[N+](=O)[O-])c2ccccc21,"16.4 µM [falling, partial curve]",–
COC(=O)c1ccc(C(NC(=O)OCc2ccccc2)/C(F)=C/[C@@H](C)C(=O)NCc2ccc(OC)c(OC)c2)cc1 (some centres not stated),"16.4 µM [rising, single point]",–
COc1cccc(Nc2ncccc2C(=O)Nc2ccccc2)c1,"28.2 µM [falling, single point]",–
Cc1ccc(C(=O)N/C(=C/c2ccco2)C(=O)NCCc2c[nH]c3ccccc23)cc1C,"35.5 µM [falling, single point]",–
Cc1ccc2nc(Nc3ccccc3O)nc(-c3ccccc3)c2c1,"7.08 µM [falling, partial curve, poor fit]",–
Oc1ccc(N=Nc2ccc3c(c2)OCCO3)c(O)c1,"10 µM [falling, single point]",–
Cc1cccc(C(=O)N/N=C/c2coc3ccccc3c2=O)c1,"6.31 µM [falling, partial curve, poor fit]",–
CCC(=O)Nc1nc(C)c(-c2csc(Nc3ccc(S(=O)(=O)Nc4cc(C)on4)cc3)n2)s1,"7.31 µM [falling, partial curve, poor fit]",–
COc1ccc(NC(=O)NCCN2CCN(c3ccc(C)cc3)CC2)c(Cl)c1,"5.62 µM [rising, full curve, poor fit]",–
